This test deals with sea urchin major vault protein (MVP) (Strongylocentrotus purpuratus (endogenous in unfertilized eggs)) (UniProt Q5EAJ7). In words: cryo-EM structure; vaults isolated from unfertilized S. purpuratus eggs; single particle reconstruction from 409 particle images, D8 symmetry imposed, 33 Å by the 0.5 Fourier shell correlation criterion; both purified.

Results are given in words; binding and its absence hold for the method and conditions named. Some results given as binding are weak or reduced against the parent protein; the word gives no strength.

B1: sea urchin major vault protein (MVP) (protein, UniProt Q5EAJ7 1-857)
chain: MASKRGSNQDESIFRIPPYYYIHVLDHNDNVTKVVVGPKTYIRQDHERVIFGPEKMITIPPRHYCIIENPVVRNDTDQVVYDNLGQVKLFHADQEIRLAREPFPLYPGEVLKQAVTALKVVQANAALRLRAILDFEDGTQKRVAGDEWLFEGPGTYIPRKEVVVDETIRATIIRPNQAIKLRARKETNDREGTARVTGEEWQVKKVGAYLPGAYEEVVDTVNAYVLTEKNALHLRATRTFVDMKGKTRKNGEEWLINMADTDAHIPDVYEEVVGVVDINTLTNRQYCVIVDPVGPDGKPQLGQKKLVKGEVSFFLQPGETLEQGIQSVFILGEDEGLILRAQESFKDANAAGAVRQPGDRWMIRGPCEYVPTVELEVVTRRKAIPLDENEGVYIRDTKTGKVRAVTGETYMLSQDEELWAKELSPAVEELLQSAKDPVAERSDRRGDRAAPRAREKTRVISFRVPHNAAVQIYDYKEKKARVVFGPELVMLGPDEQFTQLSLSGGKPKRPNVIKALCLLLGPDFCTDIITIETADHARLQLQLSYNWHFDVPDKTDVAASAKLFSVPDFIGDACKAIASRIRGAVAGVQFDDFHKNSAKIIRASVFGFDEKNKVRERFLFPQNSLVITSIDIQSVEPVDQRTRDALQKSVQLAIEITTNSQEATARHEAERLEQEARGRLERQKIMDEAEAEKSRKELLELQANSAAVESTGQAKAEAQSRAEAARIEGEAAVDQARLKAEAAKIESESELQRLTNAREAETKYVREQNALEVNKTKQMSDIETERFRNMVQSIGADTIKAMAMAGPEMQVKLLSSLGLKSTLITDGSTPINLFNTAQGLLGGFSAKRGIEHVEEED
In the case of B1, the binding entry was “binds”.

These data come from publication PMC550661.
